# From PubChem BioAssay AID1347423 (Functional Genomics Laboratory (NCATS/FGL), 2020)
# Screen size: about 52,000 sequences; about 210 (0.4%) were called active.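 Rule for the calls: active = gene whose silencing raises cell survival under the drug, median off-target-corrected z-score across its silencing RNAs 2 or more; inactive = the rest.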 Some of the results follow.
# Assay: Resistance to Poly (ADP-Ribose) Polymerase inhibitor: Gene Identification via Genome-wide siRNA Screen
# Conditions: mouse BRCA2 R2336H ES cells, olaparib, CellTiter-Glo viability; active compounds read high
# Outline: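 Mouse BRCA2 R2336H ES cells were reverse-transfected with siRNA (20 nM final), treated at 48 h with 500 nM olaparib, and read by CellTiter-Glo after 72 h. Scores: MAD-based z per siRNA, median per gene, seed off-target correction.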
row,Sequence,z-score
1,CCAUCUAUCAAAAGCAAAUTT against Reg1,inactive: 1.75
2,CGGCACUGUCAUAAGUGUGTT against Tex292,inactive: -0.13
3,CGAUGCUUACGACAUUGUUTT against Dusp6,inactive: 0.254
4,GCGAAUCCACUUAAUUCGATT against Abhd4,inactive: 1.48
5,GGAACAGGAAAAAUGAACUTT against Cetn2,inactive: 0.351
6,GGAGAAGUUCCCUAACAUGTT against Ppan,inactive: -1.01
7,GGGAUUGCCGGACAUGGAUTT against 1110007C24Rik,inactive: 0.406
8,GGUCAUUCUAAUGACAAUCTT against D14Ertd436e,inactive: 0.133
9,GGCUCUCUUGCUGUGGGUATT against Dll4,inactive: -0.229
10,CGAGAUUUCUAUUUCAGCATT against Mapre3,inactive: 0.487
11,CGAUUCCGUCAAAUUAAAGTT against Catsper2,inactive: -0.66
12,GGGCAUUAAGUACAAAAAGTT against Ap1m2,inactive: 0.382
13,GGUCUAUGGAGACAUUAAATT against Ptprt,inactive: -0.568
14,GUCCCACUCAGGAGAAUUUTT against BC027309,inactive: 0.852
15,CGAAUUCUCUUGGAACAAUTT against Cntn3,inactive: 0.773
16,GCUAUGUAUCUUUUGAGAUTT against Chst3,inactive: -0.0284
17,GGCUCAUCCCAAUGCUAUATT against Sdc3,inactive: -1.35
18,GGGCAUUUCUUCAGCUAAUTT against Tcfec,inactive: 0.0712
19,GGGACUCAAAAUCAAGAGATT against Mrps28,inactive: -0.642
20,GCCAUUCAAAAAUCAGCCGTT against Ddi2,inactive: 0.0176
21,GGGAGGGAUUUAUGUCCUCTT against Slc6a2,inactive: 0.0612
22,GUUUGAAGGAUCGGAGAAGTT against LOC435684,inactive: -0.114
23,GGACCUUGGGCAGAUUCAATT against Atp10d,inactive: 0.908
24,GCGCGUGACAAGGAGGAUUTT against F630043A04Rik,inactive: -1.57
25,GCUAGCACUAAGUGAACCUTT against 1110018J12Rik,inactive: 0.625
26,CCUUAAACGACGAGAAGCATT against Hp,inactive: -0.914
27,GGACAUGAAGAAAAGCACCTT against Bin3,inactive: -0.845

row,Sequence,z-score
1,GGCAUCAUCCAAAAUUCCCTT against Amd1,inactive: -1.53
2,CCGAUCUGAUAUAGUAGAATT against Stk31,inactive: 0.181
3,CGUCUAACCACCAUUCGGUTT against A730041O15Rik,inactive: 0.0299
4,CCACAGUCCCAGUUUCAAGTT against Mcee,inactive: 0.808
5,GGUUUUGCCUCCCAUAGUATT against Ssty1,inactive: -0.998
6,GGAGAAAGUUGAACGUAUUTT against Cct2,inactive: -2.73
7,GGUACUCUGUGGAUAUCCCTT against Rpl27,inactive: -2.48
8,CCAAGGUGGGUUACAGUGUTT against Zc3hdc3,inactive: -1.3
9,GGCCAAGCAUUACAUUUAUTT against Srp54,inactive: 0.134
10,GGUGAACAUCACUUAUCCCTT against D630024D12Rik,inactive: 0.893
11,CCAUAUGGUGGUCACGACATT against Tm7sf4,inactive: -1.71
12,GCUAUACCAAGUGGAUAGUTT against Prkaa1,inactive: -0.0549
13,GCUUAAGCGACUUCAUUGCTT against Ian3,inactive: 0.511
14,CGAGAAUGUAGAAAGUGGGTT against C330043M08,inactive: -0.413
15,GCUCACAUGUUUUAGGUGATT against 1200014M14Rik,inactive: 0.545
16,GGGACUCCUUUAAAUUUCUTT against Pipox,inactive: -0.848
17,GCAUCACUAGAUUUGGGCATT against 4931414L13Rik,inactive: -0.277
18,GGCACACACCAUAUGGUAATT against Ldb1,inactive: -0.0726
19,CCACUCAUGAAGACGGAAGTT against Abat,inactive: 0.134
20,GGAAAGAAUCGAUUUAGACTT against Slc5a4a,inactive: 0.921
21,GGGAUAGUGUUCCUUAUCUTT against Neu1,inactive: 0.539
22,GGAUCUUCUACUAUUGAUATT against Paqr5,inactive: 0.662
23,GGAAGAAGCAGGUGAUUAATT against Grb14,inactive: -1.16
24,CGACCUAAUGAAGAAUGUCTT against Hmgcr,inactive: -2.67
25,CGAUUGGUUGUUGUAGACATT against Wbscr21,inactive: -0.285
26,GGCAAAGCUCCAUCAUCUGTT against 1100001A21Rik,inactive: 0.767
27,GGCCAUCUUGACACACAUGTT against Wnt4,inactive: -0.887

row,Sequence,z-score
1,GGUGUGAAGGAGAAGUUCATT against Atp6v1a1,inactive: 0.129
2,GGUCAUUCCUGAGUGCAGGTT against Olfr545,inactive: -0.966
3,GGGUUAGCCAUAGAAGAAGTT against Auh,inactive: -1.86
4,GGCAUGAGGAUACUGAAGGTT against Klra19,inactive: 0.813
5,GGCUUAAGUUAGGCAAACUTT against BC011210,inactive: -1.5
6,CCCAAAGUGCUUUACAAUGTT against Aard,inactive: 0.796
7,GGUAUUUUUCAAGAUUACGTT against Cdkn1b,inactive: -0.398
8,GGUCUUUCAAAUACCCAAATT against Rcor1,inactive: 1.36
9,GGAGAAAUGCUGAUGUCAATT against Ankrd22,inactive: -0.501
10,GCUACCAGGAUAGCGAAACTT against P2rx2,inactive: -0.223
11,GGCUCUGCUGGAUAUCAUGTT against Thrap4,inactive: 1.5
12,GCAUAGCAGGAAGGCCUUGTT against Htr6,inactive: -0.359
13,GGCAGUCUAGCUGAAUCAATT against Tnfsf14,inactive: -0.806
14,GCUUAUAAAGUAGUGGUUUTT against Wnt2b,inactive: -0.213
15,GGAAAAAUUUAGACAGCACTT against Csrp2,inactive: 1.12
16,GGGUUCCAAUGAAGAUCUCTT against Nr1i2,inactive: 0.72
17,GGUCUAUGGCCCAUAUGAATT against Cspg4,inactive: 0.191
18,GGAUGAGUAUGAGAGGAAUTT against Mitc1,inactive: 0.717
19,GGAGCCAAAUAUUAGCGCGTT against Mglap,inactive: -0.268
20,GGUCAGAUGUAGAAACAGCTT against Dlgap2,inactive: -1.03
21,GGCGAAAGCCUUGAGGUUGTT against 1500010G04Rik,inactive: 0.767
22,GGCAGAUAAAGAUGGAGCATT against Ndph,inactive: -1.82
23,GUUCCUCCACAUCCUAGACTT against Smr1,inactive: -0.287
24,GGAAGAAGAAACUCAAGAGTT against Rnf167,inactive: 0.465
25,GCAUUAUGAACCGAAAUGUTT against Olfr1265,inactive: -0.28
26,GGUGCUACGAGUUUUAGAATT against Tcfap2c,inactive: 1.06
27,GGAUGUUCAUCUAUUUCUUTT against Mja1l,inactive: -0.191

# 4 records drawn at random from those above:
row,Sequence,z-score
9,GGAGAAAUGCUGAUGUCAATT against Ankrd22,inactive: -0.501
5,GGCUUAAGUUAGGCAAACUTT against BC011210,inactive: -1.5
11,GGCUCUGCUGGAUAUCAUGTT against Thrap4,inactive: 1.5
18,GGAUGAGUAUGAGAGGAAUTT against Mitc1,inactive: 0.717

# (next part)

row,Sequence,z-score
1,GGAACGUGCAAUGCUUGUUTT against Adm,inactive: -0.719
2,GCAGGAACGUGAGGACCAUTT against Snip1,inactive: 0.492
3,CCUGUAUUUUACGAUCUUUTT against Vmd2,inactive: 1.19
4,GCACUUUGAGAACACUAAUTT against Zfp9,inactive: 1.92
5,GGUCAUUCAAUACCAGAUATT against Cd48,inactive: -1.56
6,GGAAAGGAACAUAUUUGACTT against Gss,inactive: 0.767
7,CCUAAUCGAGAAUGAGUUATT against Speer2,inactive: 0.464
8,GGCCAACUGUACAAACUCCTT against Tmpit,inactive: -1.44
9,CCUAGUGUGUGCUUUUCGGTT against Akr7a5,inactive: 1.82
10,GCGAAUUGAACAGUUCUCATT against Cwf19l2,inactive: 0.733
11,GGAAGCUGAAGGUUUGCCATT against 2510001I10Rik,inactive: -0.348
12,GGCUGCACCAGAAACAUUATT against Vezf1,inactive: 1.04
13,GGGUACUUCUCAGGAAUAGTT against Nudt5,inactive: 0.785
14,GGAGAUGUUGGACUUCAUGTT against 4930519N16Rik,inactive: -1.17
15,GGCUAUCUGAUCAAGCCCATT against 0610009F02Rik,inactive: -0.647
16,GCUUCUGAUAUAGUCAGCCTT against Ptpro,inactive: -0.243
17,GGAGCUAUCACUUUUCAUUTT against G0s2,inactive: -0.202
18,GGACUUUGAACUACCGAAGTT against Usp54,inactive: 1.88
19,GGUAGCAAAUUUCAAUCUUTT against Hipk1,inactive: 0.733
20,GCUUACAGCAAGAUCAAGGTT against Pip5k2b,inactive: 0.467
21,GGGCUGACCAGUUUGAGUATT against Polr2h,inactive: -2.24
22,CCAACUUGUAAUCAAAGGATT against Eif2s2,inactive: -1.12
23,GGGAUACUACUUUCUAACATT against Thsd2,inactive: 0.147
24,GGUGGUCAACCCUCUGUUCTT against Rpl7a,inactive: -1.21
